Source: PMC7072305
No constants are given. Whether binding was seen depends on the method and setting. In cells and extracts the contact can be indirect. Some entries that bind do so weakly or less than the wild type. For part of these data: Where a sequence is shown, tags or fusion partners need not be part of it. Blank lines part the entries; values can stand above or below the binder they belong to.

Columns and labels:
GFP-RIG-I = biological target: T1, GFP-RIG-I (UniProt O95786); assay: co-IP; reciprocal co-IP from HEK293T cells co-transfected with GFP-RIG-I and Myc-MEX3A (1:0.5); Triton buffer (50 mM Tris-HCl pH 7.5, 250 mM NaCl, 50 mM NaF, 1 mM EDTA, 0.1% Triton X-100); antibody overnight at 4 °C, Protein agarose beads; immunoblot
T1 sequence: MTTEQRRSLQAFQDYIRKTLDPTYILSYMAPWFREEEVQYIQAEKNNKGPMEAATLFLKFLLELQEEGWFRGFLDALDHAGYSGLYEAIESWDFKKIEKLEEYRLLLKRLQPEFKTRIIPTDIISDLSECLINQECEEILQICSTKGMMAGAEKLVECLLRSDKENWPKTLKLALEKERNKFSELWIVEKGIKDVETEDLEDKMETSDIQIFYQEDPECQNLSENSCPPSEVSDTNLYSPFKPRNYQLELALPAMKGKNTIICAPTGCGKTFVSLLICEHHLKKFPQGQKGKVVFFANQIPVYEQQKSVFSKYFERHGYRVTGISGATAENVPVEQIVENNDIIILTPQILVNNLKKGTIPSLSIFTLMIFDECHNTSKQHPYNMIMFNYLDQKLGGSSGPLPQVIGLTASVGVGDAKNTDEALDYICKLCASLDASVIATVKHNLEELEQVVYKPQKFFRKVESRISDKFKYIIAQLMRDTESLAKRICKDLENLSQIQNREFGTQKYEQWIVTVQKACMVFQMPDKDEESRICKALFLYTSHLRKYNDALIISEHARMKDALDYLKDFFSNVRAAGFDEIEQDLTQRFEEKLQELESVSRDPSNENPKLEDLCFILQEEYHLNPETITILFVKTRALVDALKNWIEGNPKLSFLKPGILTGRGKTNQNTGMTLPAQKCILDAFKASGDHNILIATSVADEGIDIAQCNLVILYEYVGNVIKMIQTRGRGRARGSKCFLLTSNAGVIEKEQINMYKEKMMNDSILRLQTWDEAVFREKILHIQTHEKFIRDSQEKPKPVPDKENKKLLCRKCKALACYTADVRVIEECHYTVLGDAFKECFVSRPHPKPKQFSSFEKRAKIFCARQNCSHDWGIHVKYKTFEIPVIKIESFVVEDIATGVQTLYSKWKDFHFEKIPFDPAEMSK

[1] = biological target: T2, endogenous RIG-I (human (endogenous in A-172, T98G and GB tissue)) (UniProt O95786); assay: co-IP; endogenous proteins in A-172 and T98G GB cell lines; Triton buffer (50 mM Tris-HCl pH 7.5, 250 mM NaCl, 50 mM NaF, 1 mM EDTA, 0.1% Triton X-100); antibody or control IgG overnight at 4 °C, Protein agarose beads; immunoblot
T2 sequence: T1 sequence

[2] = biological target: T2, endogenous RIG-I (human (endogenous in A-172, T98G and GB tissue)); assay: co-IP; endogenous proteins in a GB clinical sample, mechanically disrupted in Triton buffer, sonicated, centrifuged; immunoprecipitation and immunoblot as for cells

binding (GFP-RIG-I): binds
B1: Myc-MEX3A (protein, UniProt A1L020 1-520)
chain: MPSLVVSGIMERNGGFGELGCFGGSAKDRGLLEDERALQLALDQLCLLGLGEPPAPTAGEDGGGGGGGAPAQPAAPPQPAPPPPPAAPPAAPTAAPAAQTPQPPTAPKGASDAKLCALYKEAELRLKGSSNTTECVPVPTSEHVAEIVGRQGCKIKALRAKTNTYIKTPVRGEEPVFMVTGRREDVATARREIISAAEHFSMIRASRNKSGAAFGVAPALPGQVTIRVRVPYRVVGLVVGPKGATIKRIQQQTNTYIITPSRDRDPVFEITGAPGNVERAREEIETHIAVRTGKILEYNNENDFLAGSPDAAIDSRYSDAWRVHQPGCKPLSTFRQNSLGCIGECGVDSGFEAPRLGEQGGDFGYGGYLFPGYGVGKQDVYYGVAETSPPLWAGQENATPTSVLFSSASSSSSSSAKARAGPPGAHRSPATSAGPELAGLPRRPPGEPLQGFSKLGGGGLRSPGGGRDCMVCFESEVTAALVPCGHNLFCMECAVRICERTDPECPVCHITATQAIRIFS

binding [1]: binds
binding [2]: binds
B2: endogenous MEX3A (protein, UniProt A1L020 1-520)
chain: B1 chain
